PubChem BioAssay AID1159578 – Peter MacCallum Cancer Centre – 2015

Purpose: 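Knock-downs that alter how fast lymphatic endothelial cells migrate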 (primary screen)
System: human lymphatic endothelial cells
Reagents: siRNA pool against human genes, 40 nM
Duration: 48 h after transfection
Measured: 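Cells stained with dye and imaged after a scratch; covered wound area and nuclei counted, duplicates averaged, migration set against mock wells and turned into a robust z-score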
Scale: migration robust z-score: higher = faster migration into the scratch; migration relative to mock: higher = more scratch area covered than mock; nuclei per well: higher = more cells in the well
Hit rule: 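Migration changed when robust z exceeds 2 or falls below -2 and mean nuclei number is at least 3300; otherwise not called changed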
Calls: active = migration changed; inactive = no migration change, or too few cells
The whole screen tested about 18,000 reagents; below is a part drawn at random. About 1,030 of them (5.7%) were called active. 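Inactive calls also include pools with fewer than 3300 nuclei, whose migration was not assessed.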 Raw values vary from plate to plate and are shown uncorrected. Reagent sequences are not shown.

gene symbol,migration robust z-score,migration class with cell-count check,migration relative to mock,"nuclei per well, duplicate mean",call
ORM2 (orosomucoid 2),-1.9,migration z between -2 and 2; enough cells,0.4,4546,inactive
DYNC1LI2 (dynein cytoplasmic 1 light intermediate chain 2),-1.14,migration z between -2 and 2; enough cells,0.58,7488,inactive
NOTCH1 (notch receptor 1),-0.15,migration z between -2 and 2; enough cells,0.77,5530,inactive
UBE2W (ubiquitin conjugating enzyme E2 W),1.25,migration z between -2 and 2; enough cells,1.04,4800,inactive
ARMC7 (armadillo repeat containing 7),-0.56,migration z between -2 and 2; enough cells,0.74,6288,inactive
CD79A (CD79a molecule),-0.75,migration z between -2 and 2; enough cells,0.66,3540,inactive
TTLL5 (tubulin tyrosine ligase like 5),-0.66,migration z between -2 and 2; enough cells,0.72,6372,inactive
SHISA3 (shisa family member 3),1.75,migration z between -2 and 2; enough cells,1.34,5507,inactive
TRAM1L1 (translocation associated membrane protein 1 like 1),0.32,migration z between -2 and 2; enough cells,0.97,5052,inactive
TMED1 (transmembrane p24 trafficking protein 1),0.24,migration z between -2 and 2; enough cells,0.85,6453,inactive
ZFC3H1 (zinc finger C3H1-type containing),-0.69,migration z between -2 and 2; enough cells,0.7,5230,inactive
RPL36AL (ribosomal protein L36a like),1.77,migration z between -2 and 2; enough cells,1.35,5745,inactive
TMEM14C (transmembrane protein 14C),2.25,migration z above 2; enough cells,1.47,6060,active
GCFC2 (GC-rich sequence DNA-binding factor 2),0.56,migration z between -2 and 2; enough cells,1.03,6596,inactive
DPEP3 (dipeptidase 3),0.16,migration z between -2 and 2; enough cells,0.84,5400,inactive
GPT2 (glutamic--pyruvic transaminase 2),0.68,migration z between -2 and 2; enough cells,0.94,5400,inactive
LHFPL3 (LHFPL tetraspan subfamily member 3),0.16,migration z between -2 and 2; enough cells,0.92,5192,inactive

Continued; the last 3 above are carried over.
gene symbol,migration robust z-score,migration class with cell-count check,migration relative to mock,"nuclei per well, duplicate mean",call
DPEP3 (dipeptidase 3),0.16,migration z between -2 and 2; enough cells,0.84,5400,inactive
GPT2 (glutamic--pyruvic transaminase 2),0.68,migration z between -2 and 2; enough cells,0.94,5400,inactive
LHFPL3 (LHFPL tetraspan subfamily member 3),0.16,migration z between -2 and 2; enough cells,0.92,5192,inactive
ARID1A (AT-rich interaction domain 1A),-0.28,migration z between -2 and 2; enough cells,0.75,5134,inactive
SPACA4 (sperm acrosome associated 4),-0.26,migration z between -2 and 2; enough cells,0.82,5382,inactive
ZIC4 (Zic family zinc finger 4),-1.67,migration z between -2 and 2; enough cells,0.45,6195,inactive
PTPRD (protein tyrosine phosphatase receptor type D),-0.13,migration z between -2 and 2; enough cells,0.78,5073,inactive
HES1 (hes family bHLH transcription factor 1),1.66,migration z between -2 and 2; enough cells,1.12,4502,inactive
TM7SF3 (transmembrane 7 superfamily member 3),1.36,migration z between -2 and 2; enough cells,1.25,6406,inactive
AKAP8 (A-kinase anchoring protein 8),-0.42,migration z between -2 and 2; enough cells,0.72,5202,inactive
KRTAP26-1 (keratin associated protein 26-1),-0.15,migration z between -2 and 2; enough cells,0.84,6050,inactive
MRPL4 (mitochondrial ribosomal protein L4),-1.01,migration z between -2 and 2; enough cells,0.62,4393,inactive
TOPBP1 (DNA topoisomerase II binding protein 1),-1.66,migration z between -2 and 2; enough cells,0.48,4084,inactive
BAGE3 (BAGE family member 3),-1.27,migration z between -2 and 2; enough cells,0.55,5772,inactive
GSTA2 (glutathione S-transferase alpha 2),0.6,migration z between -2 and 2; enough cells,0.92,6308,inactive
WDR7 (WD repeat domain 7),-0.6,migration z between -2 and 2; enough cells,0.74,6059,inactive
FAHD2B (fumarylacetoacetate hydrolase domain containing 2B),-1.68,migration z between -2 and 2; enough cells,0.48,4620,inactive
PRSS54 (serine protease 54),0.75,migration z between -2 and 2; enough cells,0.95,6320,inactive
SCN4A (sodium voltage-gated channel alpha subunit 4),-1.32,migration z between -2 and 2; enough cells,0.55,4334,inactive
RC3H1 (ring finger and CCCH-type domains 1),-1.22,migration z between -2 and 2; enough cells,0.57,4938,inactive
CYP4A11 (cytochrome P450 family 4 subfamily A member 11),0.62,migration z between -2 and 2; enough cells,0.92,4898,inactive
NMS (neuromedin S),-1.28,migration z between -2 and 2; enough cells,0.56,4691,inactive
RPL41 (ribosomal protein L41),-0.32,migration z between -2 and 2; enough cells,0.8,5181,inactive
MBD3 (methyl-CpG binding domain protein 3),2.4,migration z above 2; enough cells,1.51,5799,active
OR7C1 (olfactory receptor family 7 subfamily C member 1),0.75,migration z between -2 and 2; enough cells,1.08,5460,inactive
